# Measurements reported in PubChem BioAssay AID1259405 (NCATS, 2018)
# Test: 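Mouse-designed siRNAs used to find CHO productivity engineering targets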 (primary screen)
# Cell system: Chinese hamster CHO-K1 ovary cells with stable secreted eGFP expression
# Knock-down reagent: single siRNA against mouse genes, 0.8 pmol siRNA per well (2 µl of 400 nM stock)
# Timing: 3 days
# Read-out: 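Per-well intracellular GFP measured by laser scanning cytometry, plus viability from ATP luminescence, each relative to plate median of non-targeting control wells, in %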
# Reading the numbers: GFP, % of control: higher = more GFP per well, higher productivity; viability (ATP), % of control: higher = more viable cells (more ATP)
# Call rule: 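Called active when intracellular GFP, relative to negative control, is at or above 120%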
# In all, the deposit lists about 50,000 reagents; this is an unselected part. Over the whole deposit, about 4,000 (8%) were called active. 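Mouse siRNA library applied to hamster cells; one well for each siRNA.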 Unmarked entries are inactive. Reagents against one gene are numbered here.
Target gene,reagent no.,"GFP, % of control","viability (ATP), % of control"
Cmtm6,1,125 (active),97.6
Cmtm6,2,77.4,72.1
Cmtm6,3,130 (active),115
Sec61g,1,40.5,17.7
Sec61g,2,91.5,85.9
Sec61g,3,91.4,75.7
Myoc,1,80.3,99.4
Myoc,2,118,69.8
Myoc,3,103,92.2
Eppin,1,53.8,70.8
Eppin,2,74.2,67.4
Eppin,3,145 (active),105
Zdhhc3,1,74.4,124
Zdhhc3,2,100,81.2
Zdhhc3,3,32.6,15.7
Krtap13,1,66.9,82.9
Krtap13,2,66.3,60
Krtap13,3,112,81.2
Dab2,1,104,71.3
Dab2,2,195 (active),59.9
Dab2,3,103,95
Dab2,4,98.1,85.6
Dab2,5,88,83.5
Enox1,1,76.3,82.1
Enox1,2,71.2,64.9
Enox1,3,97.9,77.7
Sox17,1,83.4,65.2
Sox17,2,65.8,37.6
Sox17,3,96.4,116
Fam204a,1,66.9,85.4
Fam204a,2,83.4,72
Fam204a,3,78.5,75.5
Vps45,1,56.4,61.4
Vps45,2,220 (active),69.4
Vps45,3,82.6,71

In a second layout: entries from further up
{"Target gene": "Krtap13", "reagent no.": 2, "GFP, % of control": 66.3, "viability (ATP), % of control": 60}
{"Target gene": "Krtap13", "reagent no.": 3, "GFP, % of control": 112, "viability (ATP), % of control": 81.2}
{"Target gene": "Dab2", "reagent no.": 1, "GFP, % of control": 104, "viability (ATP), % of control": 71.3}
{"Target gene": "Dab2", "reagent no.": 2, "GFP, % of control": "195 (active)", "viability (ATP), % of control": 59.9}
{"Target gene": "Dab2", "reagent no.": 3, "GFP, % of control": 103, "viability (ATP), % of control": 95}
{"Target gene": "Dab2", "reagent no.": 4, "GFP, % of control": 98.1, "viability (ATP), % of control": 85.6}
